The match of structure and compound is tentative.
What was measured:
[1] = Liver microsome metabolic stability (HLM); details: human liver microsomes
Protocol: (§1) We quantified S1–S15 and Zuranolone using a UPLC-MS/MS (Agilent 1290 Infinity II UHPLC (Agilent Technologies, Santa Clara, CA, USA) coupled with a QTRAP 5500 MS/MS (ESI source) (SCIEX, Redwood City, CA, USA for MS/MS). The method assessed the content level of S9 and Zuranolone in microsome metabolism and in rat brain tissue and plasma. An ACQUITY UPLC Peptide BEH C18 column (Waters; 50 × 2.1 mm, 1.7 μm; 60 °C; Waters Corporation, Milford, MA, USA) was used with a mobile phase of 0.02% propionic acid in water (A) and acetonitrile (B). The gradient elution of the mobile phase B is carried out as follows: it is 10% from 0 to 0.5 min, 90% from 0.8 to 2.5 min, and 10% from 2.8 to 3.5 min, with a flow rate of 0.40 mL/min. Quantitative analysis was performed on a QTRAP 5500 MS (SCIEX, Redwood City, CA, USA) in positive ionization mode with MRM (multiple reaction monitoring), using progesterone-d9 as the internal standard. MRM transitions and parameters were optimized for each analyte, with collision energies of 25 V (S1–S15), 23 V (Zuranolone), and 30 V (IS), and declustering potentials of 80 V (S1–S15), 90 V (Zuranolone), and 180 V (IS). […]
(§2) To evaluate the metabolic stability of compounds S1–S15 and Zuranolone in RLM and HLM, we designed the following in vitro liver microsome metabolism assay protocol. […] After centrifuging the mixture, we analyzed the supernatant using UPLC-MS/MS. […]

[2] = Liver microsome metabolic stability (RLM); details: rat liver microsomes
Protocol: as §1, §2

## C[C@@]1(O)CC[C@@]2(C)[C@@H](CC[C@@H]3[C@@H]2CC[C@]2(C)[C@@H](C(=O)Cn4cnn(-c5ccnc(F)c5)c4=O)CC[C@@H]32)C1
[1]
  HLM T1/2: 40 min
[2]
  RLM T1/2: 34 min

Reference: article PMC12073189, “Synthesis and Evaluation of a Novel Zuranolone Analog with High GABAA Receptor PAM Activity and Excellent Pharmacokinetic Profiles” (Molecules, 2025)
